Experimental data reported in US20060147914A1 (Johns Hopkins, published 2006).
Results are given in words; binding and its absence hold for the method and conditions named. In cells and extracts the contact can be indirect. Some binding calls cover weakened binding; strength is not graded here.

Protein sequences, listed by entry. Tags and fused reporters are not part of them. Residues count along the entry.
UniProt P31424, residues 21-1203: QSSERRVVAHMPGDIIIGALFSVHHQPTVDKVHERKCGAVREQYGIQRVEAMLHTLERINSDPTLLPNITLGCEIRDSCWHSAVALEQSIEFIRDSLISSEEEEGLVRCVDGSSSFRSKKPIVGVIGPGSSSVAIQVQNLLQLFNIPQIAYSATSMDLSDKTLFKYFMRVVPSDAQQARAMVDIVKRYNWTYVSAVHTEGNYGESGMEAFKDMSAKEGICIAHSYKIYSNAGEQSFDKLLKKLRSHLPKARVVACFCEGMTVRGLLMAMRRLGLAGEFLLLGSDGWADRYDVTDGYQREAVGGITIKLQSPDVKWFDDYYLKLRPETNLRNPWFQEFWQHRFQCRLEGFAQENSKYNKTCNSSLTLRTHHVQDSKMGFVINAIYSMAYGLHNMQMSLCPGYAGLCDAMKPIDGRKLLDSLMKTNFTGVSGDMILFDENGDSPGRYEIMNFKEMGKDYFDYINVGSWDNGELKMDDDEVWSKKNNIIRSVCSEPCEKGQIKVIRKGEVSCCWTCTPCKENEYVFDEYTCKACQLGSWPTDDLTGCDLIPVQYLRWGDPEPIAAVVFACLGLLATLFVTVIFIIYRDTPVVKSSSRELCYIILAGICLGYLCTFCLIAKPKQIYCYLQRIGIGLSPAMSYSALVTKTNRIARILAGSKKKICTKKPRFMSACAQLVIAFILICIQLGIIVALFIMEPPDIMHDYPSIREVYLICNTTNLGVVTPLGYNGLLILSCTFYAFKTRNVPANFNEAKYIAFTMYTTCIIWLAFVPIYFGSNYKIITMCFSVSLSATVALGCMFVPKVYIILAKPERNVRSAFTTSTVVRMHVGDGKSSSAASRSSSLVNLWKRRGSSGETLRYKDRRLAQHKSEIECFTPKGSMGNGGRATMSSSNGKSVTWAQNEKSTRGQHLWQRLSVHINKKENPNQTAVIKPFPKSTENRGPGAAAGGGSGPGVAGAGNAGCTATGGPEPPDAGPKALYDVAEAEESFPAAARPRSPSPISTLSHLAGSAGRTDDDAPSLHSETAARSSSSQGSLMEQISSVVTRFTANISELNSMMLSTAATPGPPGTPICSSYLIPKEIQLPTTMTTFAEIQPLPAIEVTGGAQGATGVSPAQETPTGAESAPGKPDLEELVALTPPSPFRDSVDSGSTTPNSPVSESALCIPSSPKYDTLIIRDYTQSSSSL
UniProt Q9QX01: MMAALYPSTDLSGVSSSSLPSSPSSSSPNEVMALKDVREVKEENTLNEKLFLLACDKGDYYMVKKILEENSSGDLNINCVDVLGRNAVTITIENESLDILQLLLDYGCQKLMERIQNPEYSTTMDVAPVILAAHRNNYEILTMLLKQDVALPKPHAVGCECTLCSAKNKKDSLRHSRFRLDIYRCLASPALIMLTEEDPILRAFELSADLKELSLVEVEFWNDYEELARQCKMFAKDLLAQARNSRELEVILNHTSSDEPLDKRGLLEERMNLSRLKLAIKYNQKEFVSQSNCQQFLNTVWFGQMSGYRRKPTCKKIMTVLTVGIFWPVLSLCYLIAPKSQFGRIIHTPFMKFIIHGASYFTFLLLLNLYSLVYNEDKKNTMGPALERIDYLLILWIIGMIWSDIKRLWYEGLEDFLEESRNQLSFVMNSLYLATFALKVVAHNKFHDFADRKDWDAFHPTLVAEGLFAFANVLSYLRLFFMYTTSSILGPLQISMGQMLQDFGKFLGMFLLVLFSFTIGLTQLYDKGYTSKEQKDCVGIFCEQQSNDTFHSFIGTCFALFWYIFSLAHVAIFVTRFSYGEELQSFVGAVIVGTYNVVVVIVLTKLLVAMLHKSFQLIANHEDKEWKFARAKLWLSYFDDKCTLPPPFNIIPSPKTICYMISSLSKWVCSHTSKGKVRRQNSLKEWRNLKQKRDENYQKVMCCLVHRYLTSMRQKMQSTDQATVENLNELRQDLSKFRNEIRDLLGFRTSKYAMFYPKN
UniProt P23385, residues 19-1199: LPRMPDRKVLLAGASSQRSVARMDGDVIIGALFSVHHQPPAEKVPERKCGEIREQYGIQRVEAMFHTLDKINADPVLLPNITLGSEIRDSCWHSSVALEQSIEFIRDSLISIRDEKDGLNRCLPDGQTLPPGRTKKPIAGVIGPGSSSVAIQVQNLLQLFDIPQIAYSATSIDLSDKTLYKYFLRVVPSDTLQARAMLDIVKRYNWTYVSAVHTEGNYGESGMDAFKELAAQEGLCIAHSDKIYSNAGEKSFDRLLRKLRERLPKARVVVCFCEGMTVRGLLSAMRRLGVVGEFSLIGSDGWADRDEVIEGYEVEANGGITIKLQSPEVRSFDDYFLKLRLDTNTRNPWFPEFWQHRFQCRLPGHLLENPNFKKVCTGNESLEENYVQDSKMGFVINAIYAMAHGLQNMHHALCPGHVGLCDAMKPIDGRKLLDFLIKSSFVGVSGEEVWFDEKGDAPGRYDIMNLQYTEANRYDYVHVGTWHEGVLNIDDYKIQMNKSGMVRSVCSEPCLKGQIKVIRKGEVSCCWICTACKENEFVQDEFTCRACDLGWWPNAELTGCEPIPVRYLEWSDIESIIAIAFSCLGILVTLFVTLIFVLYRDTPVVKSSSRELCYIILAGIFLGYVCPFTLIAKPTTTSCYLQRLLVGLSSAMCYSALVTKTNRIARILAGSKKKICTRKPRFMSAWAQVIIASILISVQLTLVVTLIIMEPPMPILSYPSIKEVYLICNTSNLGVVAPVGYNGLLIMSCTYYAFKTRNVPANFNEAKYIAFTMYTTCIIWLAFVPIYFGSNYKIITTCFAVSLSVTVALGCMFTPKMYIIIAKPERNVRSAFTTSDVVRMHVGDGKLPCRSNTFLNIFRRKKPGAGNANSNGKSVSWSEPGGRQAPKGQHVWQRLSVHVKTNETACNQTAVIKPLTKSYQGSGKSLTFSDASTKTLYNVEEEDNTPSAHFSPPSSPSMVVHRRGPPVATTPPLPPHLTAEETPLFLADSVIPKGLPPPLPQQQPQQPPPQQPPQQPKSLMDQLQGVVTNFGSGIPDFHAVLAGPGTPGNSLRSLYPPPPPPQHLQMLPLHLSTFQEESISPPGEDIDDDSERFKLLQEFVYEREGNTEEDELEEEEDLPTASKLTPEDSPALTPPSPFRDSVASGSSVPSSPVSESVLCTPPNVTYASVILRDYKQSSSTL

Tests used:
[1] = biological target: native mGluR5 in detergent extracts of rat hippocampus (rat) (UniProt P31424); assay: co-immunoprecipitation from rat hippocampus extract
[2] = biological target: native TrpC1 from adult rat brain lysates (rat) (UniProt Q9QX01); assay: co-immunoprecipitation from rat cerebellum lysate
[3] = biological target: native mGluR1 from rat cerebellum (rat) (UniProt P23385); assay: co-precipitation from cerebellum of rats injected with 10 mg/kg FK-506 or vehicle
[4] = biological target: native mGluR1 from rat cerebellum (rat) (UniProt P23385); assay: co-precipitation from cerebellum of rats injected with FK-506
[5] = biological target: native TrpC1 from adult rat brain lysates (rat) (UniProt Q9QX01); assay: co-immunoprecipitation from rat brain
[6] = biological target: native TrpC1 from adult rat brain lysates (rat) (UniProt Q9QX01); assay: co-immunoprecipitation from rat brain lysate

binding [1]	binding [2]	binding [3]	binding [4]	binding [5]	binding [6]	Binder
binds						native Homer from rat hippocampus (protein) GEQPIFSTRAHVFQIDPNTKKNWVPTSKHAVTVSYFYDSTRNVYRIISLDGSKAIINSTITPNMTFTKTSQKFGQWADSRANTVYGLGFSSEHHLSKFAEKFQEFKEAARLAKEKSQEKMELTSTPSQESAGGDLQSPLTPESINGTDDERTPDVTQNSEPRAEPAQNALPFSHRYTFNSAIMIK
	binds	binds	binds	binds		native Homer 3 from adult rat cerebellum (protein, UniProt Q9Z2X5 1-358, looked up) MSTAREQPIFSTRAHVFQIDPATKRNWIPAGKHALTVSYFYDATRNVYRIISIGGAKAIINSTVTPNMTFTKTSQKFGQWADSRANTVYGLGFGSEQQLTQFAEKFQEVKEAARLAREKSQDGGELTSTALAMASHQVPPSPLVSTNGPEEKLFRSQSADAPGPTERERLKKMLSEGSVGEVQWEAEFFALQDSNQRLAGALREANAAATQWRQQLEVQRAEAEHLRQRVAELEAQVAAEPVRAGEKEATSQSVEQLEARVQTKDQEIQTLKNQSTGPREAPDTAEREETQQQVQDLETRNAELEQQLRAMESNLEEARAERERARAEVGRAAQLLDVRLFELSELREGLARLAEAAP
				binds	binds	native Homer 1 from adult rat forebrain / hippocampus (protein, UniProt Q9Z214 2-366, looked up) GEQPIFSTRAHVFQIDPNTKKNWVPTSKHAVTVSYFYDSTRNVYRIISLDGSKAIINSTITPNMTFTKTSQKFGQWADSRANTVYGLGFSSEHHLSKFAEKFQEFKEAARLAKEKSQEKMELTSTPSQESAGGDLQSPLTPESINGTDDERTPDVTQNSEPRAEPAQNALPFSHSAGDRTQGLSHASSAISKHWEAELATLKGNNAKLTAALLESTANVKQWKQQLAAYQEEAERLHKRVTELECVSSQANAVHSHKTELSQTVQELEETLKVKEEEIERLKQEIDNARELQEQRDSLTQKLQEVEIRNKDLEGQLSELEQRLEKSQSEQDAFRSNLKTLLEILDGKIFELTELRDNLAKLLECS
